Assay results as given in the M2OR odorant receptor database.
Substitutions are numbered along the chain they refer to. Only a part is listed here, and it is no random draw. Calls are pooled over several reports, among them a noisy single-well screen. The list shows a part of the results. This is one part of the list.

Chains of the proteins cited; added tags and fusions are not shown. Chains listed by the source or under a name are the forms on record and can include a tag or linker.
OR5H1, as listed by the source: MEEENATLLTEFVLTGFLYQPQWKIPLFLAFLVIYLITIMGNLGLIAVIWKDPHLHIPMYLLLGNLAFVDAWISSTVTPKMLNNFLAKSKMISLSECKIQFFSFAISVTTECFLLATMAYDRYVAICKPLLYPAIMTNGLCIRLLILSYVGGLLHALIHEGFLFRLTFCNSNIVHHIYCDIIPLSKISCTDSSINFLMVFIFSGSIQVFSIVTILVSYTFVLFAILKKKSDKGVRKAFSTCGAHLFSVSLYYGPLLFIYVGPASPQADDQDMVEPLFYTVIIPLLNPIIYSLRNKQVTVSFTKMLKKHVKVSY
OR5L1, as listed by the source: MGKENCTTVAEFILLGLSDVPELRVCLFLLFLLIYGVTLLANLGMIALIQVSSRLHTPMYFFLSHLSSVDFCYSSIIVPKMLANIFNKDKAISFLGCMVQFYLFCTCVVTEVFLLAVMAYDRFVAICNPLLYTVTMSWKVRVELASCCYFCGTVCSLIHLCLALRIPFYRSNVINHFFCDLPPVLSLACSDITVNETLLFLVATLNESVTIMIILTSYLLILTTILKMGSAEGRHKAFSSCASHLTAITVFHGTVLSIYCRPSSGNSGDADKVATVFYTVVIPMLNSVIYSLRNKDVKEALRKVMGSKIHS

What was measured:
Conditions in all cases: stereoisomer not certain
OR5DD = tested on: T1, OR5DD
T1 sequence (whole entry): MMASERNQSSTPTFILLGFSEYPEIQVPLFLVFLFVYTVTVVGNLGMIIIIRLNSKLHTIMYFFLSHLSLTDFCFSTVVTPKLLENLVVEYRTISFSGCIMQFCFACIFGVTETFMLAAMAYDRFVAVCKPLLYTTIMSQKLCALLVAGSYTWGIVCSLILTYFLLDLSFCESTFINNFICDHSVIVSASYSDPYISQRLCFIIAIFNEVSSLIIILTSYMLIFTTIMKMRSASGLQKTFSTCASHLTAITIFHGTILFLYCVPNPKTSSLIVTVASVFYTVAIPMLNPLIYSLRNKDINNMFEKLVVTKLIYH
In short: (§1)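 Whether a receptor–molecule pair is responsive (active) rests on the original authors' judgment that its measured signal was statistically different from baseline. Pairs without that judgment are non-responsive (inactive). Sources used varied assay methods, commonly transient luciferase assays in mammalian cell lines.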

OR5DE = tested on: T2, OR5DE
T2 sequence (whole entry): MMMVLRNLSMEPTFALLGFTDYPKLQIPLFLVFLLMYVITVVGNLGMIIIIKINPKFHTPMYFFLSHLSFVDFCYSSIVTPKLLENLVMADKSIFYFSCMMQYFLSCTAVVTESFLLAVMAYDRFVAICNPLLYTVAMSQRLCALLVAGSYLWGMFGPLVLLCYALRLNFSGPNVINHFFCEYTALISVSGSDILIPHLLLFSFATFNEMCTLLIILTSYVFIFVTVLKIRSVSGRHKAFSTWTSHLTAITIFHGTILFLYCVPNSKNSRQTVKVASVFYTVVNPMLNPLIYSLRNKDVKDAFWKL
In short: as §1

OR5DG = tested on: T3, OR5DG
T3 sequence (whole entry): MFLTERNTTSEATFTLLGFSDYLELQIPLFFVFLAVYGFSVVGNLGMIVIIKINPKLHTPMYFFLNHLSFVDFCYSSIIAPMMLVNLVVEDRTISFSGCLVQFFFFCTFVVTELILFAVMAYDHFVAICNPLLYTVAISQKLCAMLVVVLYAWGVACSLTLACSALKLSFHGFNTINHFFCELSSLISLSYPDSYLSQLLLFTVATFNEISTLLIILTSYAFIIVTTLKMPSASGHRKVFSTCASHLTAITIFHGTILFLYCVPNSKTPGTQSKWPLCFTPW
In short: as §1

OR5DI = tested on: T4, OR5DI
T4 sequence (whole entry): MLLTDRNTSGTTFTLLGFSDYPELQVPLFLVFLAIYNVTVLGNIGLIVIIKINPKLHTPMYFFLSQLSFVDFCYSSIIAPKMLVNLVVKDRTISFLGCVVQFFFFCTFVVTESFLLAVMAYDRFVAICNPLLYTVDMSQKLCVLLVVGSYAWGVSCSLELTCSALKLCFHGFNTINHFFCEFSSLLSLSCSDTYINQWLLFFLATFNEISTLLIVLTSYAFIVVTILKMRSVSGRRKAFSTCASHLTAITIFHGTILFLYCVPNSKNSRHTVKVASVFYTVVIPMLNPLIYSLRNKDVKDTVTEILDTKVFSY
In short: as §1

OR5F1 = tested on: T5, OR5F1
T5 sequence (whole entry): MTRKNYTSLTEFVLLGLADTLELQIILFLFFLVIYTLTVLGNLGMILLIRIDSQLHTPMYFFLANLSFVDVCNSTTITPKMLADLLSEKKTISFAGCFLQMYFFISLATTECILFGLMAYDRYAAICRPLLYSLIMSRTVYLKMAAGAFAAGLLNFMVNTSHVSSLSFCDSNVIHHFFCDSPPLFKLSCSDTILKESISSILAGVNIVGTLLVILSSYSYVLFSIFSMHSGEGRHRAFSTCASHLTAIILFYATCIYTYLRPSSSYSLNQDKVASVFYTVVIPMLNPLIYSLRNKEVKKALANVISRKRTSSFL
In short: as §1

OR5H1 (Homo sapiens) = biological target: T6, OR5H1 (Homo sapiens) (UniProt A6NKK0)
T6 sequence (whole entry): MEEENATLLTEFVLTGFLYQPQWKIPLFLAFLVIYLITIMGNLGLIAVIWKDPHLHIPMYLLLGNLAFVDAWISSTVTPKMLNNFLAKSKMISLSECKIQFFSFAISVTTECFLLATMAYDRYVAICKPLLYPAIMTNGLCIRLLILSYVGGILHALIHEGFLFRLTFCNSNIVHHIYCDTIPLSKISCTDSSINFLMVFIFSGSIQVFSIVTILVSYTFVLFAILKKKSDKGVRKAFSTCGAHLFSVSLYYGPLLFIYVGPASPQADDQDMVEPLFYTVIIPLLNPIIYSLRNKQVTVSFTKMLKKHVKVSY
In short: as §1

OR5H1 = tested on: T7, OR5H1
T7 sequence (whole entry): T6 sequence (whole entry) with I153L, T181I
In short: as §1

OR5H2 [1] = tested on: T8, OR5H2
T8 sequence (whole entry): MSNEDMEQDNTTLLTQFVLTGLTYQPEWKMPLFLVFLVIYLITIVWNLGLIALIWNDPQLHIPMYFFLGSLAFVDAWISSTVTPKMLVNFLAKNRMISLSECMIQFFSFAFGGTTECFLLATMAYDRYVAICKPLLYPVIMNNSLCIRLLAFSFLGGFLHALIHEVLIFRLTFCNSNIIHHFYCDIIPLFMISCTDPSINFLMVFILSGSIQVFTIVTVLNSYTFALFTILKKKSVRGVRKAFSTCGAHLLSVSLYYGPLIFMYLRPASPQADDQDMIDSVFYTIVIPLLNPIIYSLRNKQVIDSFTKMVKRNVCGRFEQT
In short: as §1

OR5H2 [2] = tested on: T9, OR5H2; remark: listed apart in the source
T9 sequence (whole entry): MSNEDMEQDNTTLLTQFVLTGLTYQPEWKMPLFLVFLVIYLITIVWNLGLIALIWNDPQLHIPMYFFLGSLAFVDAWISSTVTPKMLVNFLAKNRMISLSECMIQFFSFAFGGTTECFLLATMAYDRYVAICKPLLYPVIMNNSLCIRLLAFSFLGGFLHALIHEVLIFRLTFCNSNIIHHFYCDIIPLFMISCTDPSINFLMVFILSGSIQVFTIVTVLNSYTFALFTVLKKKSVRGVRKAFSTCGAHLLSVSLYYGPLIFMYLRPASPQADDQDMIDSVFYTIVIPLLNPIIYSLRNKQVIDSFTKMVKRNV
In short: as §1

OR5H6 [3] = tested on: T10, OR5H6
T10 sequence (whole entry): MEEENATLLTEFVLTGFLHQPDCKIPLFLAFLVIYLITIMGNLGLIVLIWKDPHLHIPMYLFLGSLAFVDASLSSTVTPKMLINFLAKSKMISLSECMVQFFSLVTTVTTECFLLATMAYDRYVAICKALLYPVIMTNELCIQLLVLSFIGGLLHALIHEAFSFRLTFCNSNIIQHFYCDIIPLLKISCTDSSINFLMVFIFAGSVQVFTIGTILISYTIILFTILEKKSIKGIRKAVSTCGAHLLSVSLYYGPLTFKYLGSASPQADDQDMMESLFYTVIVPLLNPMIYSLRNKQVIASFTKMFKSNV
In short: as §1

OR5H6 [4] = tested on: T11, OR5H6; remark: listed apart in the source
T11 sequence (whole entry): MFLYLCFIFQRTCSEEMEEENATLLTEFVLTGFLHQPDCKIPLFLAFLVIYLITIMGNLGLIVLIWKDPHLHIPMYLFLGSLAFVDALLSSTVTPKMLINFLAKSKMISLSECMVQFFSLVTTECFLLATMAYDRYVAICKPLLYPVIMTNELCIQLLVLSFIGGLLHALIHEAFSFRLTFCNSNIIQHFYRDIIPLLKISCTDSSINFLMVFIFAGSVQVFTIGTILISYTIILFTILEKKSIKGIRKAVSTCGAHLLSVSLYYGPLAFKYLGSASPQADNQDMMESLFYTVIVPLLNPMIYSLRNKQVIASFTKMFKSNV
In short: as §1

OR5I1 (Homo sapiens) = biological target: T12, OR5I1 (Homo sapiens) (UniProt Q13606)
T12 sequence (whole entry): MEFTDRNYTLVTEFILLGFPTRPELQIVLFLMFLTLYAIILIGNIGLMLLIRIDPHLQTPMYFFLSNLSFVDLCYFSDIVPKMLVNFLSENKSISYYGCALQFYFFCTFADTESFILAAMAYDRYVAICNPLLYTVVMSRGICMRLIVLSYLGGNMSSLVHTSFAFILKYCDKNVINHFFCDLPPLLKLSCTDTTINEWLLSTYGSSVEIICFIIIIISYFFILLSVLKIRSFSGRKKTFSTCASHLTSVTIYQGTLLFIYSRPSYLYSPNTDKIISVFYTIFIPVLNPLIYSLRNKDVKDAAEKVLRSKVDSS
In short: as §1

OR5J2 (Homo sapiens) = biological target: T13, OR5J2 (Homo sapiens) (UniProt Q8NH18)
T13 sequence (whole entry): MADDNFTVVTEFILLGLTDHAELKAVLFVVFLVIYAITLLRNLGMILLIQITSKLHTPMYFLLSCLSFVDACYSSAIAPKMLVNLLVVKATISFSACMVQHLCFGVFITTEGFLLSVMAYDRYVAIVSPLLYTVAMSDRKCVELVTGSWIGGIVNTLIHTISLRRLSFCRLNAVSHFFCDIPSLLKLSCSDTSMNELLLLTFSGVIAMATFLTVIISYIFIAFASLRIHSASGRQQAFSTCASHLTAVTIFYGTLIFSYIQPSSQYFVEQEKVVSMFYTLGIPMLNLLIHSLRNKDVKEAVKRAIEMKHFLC
In short: as §1

OR5K1 (Homo sapiens) = biological target: T14, OR5K1 (Homo sapiens) (UniProt Q8NHB7)
T14 sequence (whole entry): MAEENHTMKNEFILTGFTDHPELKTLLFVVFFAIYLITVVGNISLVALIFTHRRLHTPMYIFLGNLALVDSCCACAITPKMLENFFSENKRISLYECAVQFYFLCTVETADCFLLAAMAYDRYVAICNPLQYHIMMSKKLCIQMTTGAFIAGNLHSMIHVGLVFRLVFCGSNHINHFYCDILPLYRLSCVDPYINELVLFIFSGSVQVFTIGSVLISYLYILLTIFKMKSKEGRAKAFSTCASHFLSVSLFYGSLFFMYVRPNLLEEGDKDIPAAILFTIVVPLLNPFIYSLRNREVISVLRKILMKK
In short: as §1

OR5K2 (Homo sapiens) = biological target: T15, OR5K2 (Homo sapiens) (UniProt Q8NHB8)
T15 sequence (whole entry): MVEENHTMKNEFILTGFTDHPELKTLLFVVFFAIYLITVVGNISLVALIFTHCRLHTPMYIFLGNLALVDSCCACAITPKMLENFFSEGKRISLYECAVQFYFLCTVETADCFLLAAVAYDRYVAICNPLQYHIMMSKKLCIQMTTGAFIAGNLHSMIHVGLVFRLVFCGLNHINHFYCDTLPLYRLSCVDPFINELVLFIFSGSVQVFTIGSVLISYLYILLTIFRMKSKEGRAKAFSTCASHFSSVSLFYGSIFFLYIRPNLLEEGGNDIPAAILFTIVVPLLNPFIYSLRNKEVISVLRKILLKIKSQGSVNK
In short: as §1

OR5K3 = tested on: T16, OR5K3
T16 sequence (whole entry): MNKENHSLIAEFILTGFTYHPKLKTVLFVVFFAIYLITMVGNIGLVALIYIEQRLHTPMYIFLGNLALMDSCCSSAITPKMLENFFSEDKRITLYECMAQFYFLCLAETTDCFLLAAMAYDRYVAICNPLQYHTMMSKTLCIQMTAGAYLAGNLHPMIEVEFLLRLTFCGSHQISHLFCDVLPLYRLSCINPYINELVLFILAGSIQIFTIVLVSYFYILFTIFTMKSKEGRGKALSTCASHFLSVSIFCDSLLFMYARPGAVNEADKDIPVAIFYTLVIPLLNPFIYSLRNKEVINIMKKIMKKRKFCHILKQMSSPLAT
In short: as §1

OR5K4 = tested on: T17, OR5K4
T17 sequence (whole entry): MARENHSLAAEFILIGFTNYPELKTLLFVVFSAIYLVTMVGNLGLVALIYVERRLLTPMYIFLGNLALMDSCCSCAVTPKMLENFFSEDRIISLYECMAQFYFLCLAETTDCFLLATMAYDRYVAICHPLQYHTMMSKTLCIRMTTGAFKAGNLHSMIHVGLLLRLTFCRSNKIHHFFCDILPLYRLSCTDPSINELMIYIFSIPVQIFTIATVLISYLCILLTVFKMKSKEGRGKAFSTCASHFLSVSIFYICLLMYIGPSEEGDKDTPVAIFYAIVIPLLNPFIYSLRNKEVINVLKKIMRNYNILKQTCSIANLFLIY
In short: as §1

OR5L1 (Homo sapiens) = biological target: T18, OR5L1 (Homo sapiens) (UniProt Q8NGL2)
T18 sequence (whole entry): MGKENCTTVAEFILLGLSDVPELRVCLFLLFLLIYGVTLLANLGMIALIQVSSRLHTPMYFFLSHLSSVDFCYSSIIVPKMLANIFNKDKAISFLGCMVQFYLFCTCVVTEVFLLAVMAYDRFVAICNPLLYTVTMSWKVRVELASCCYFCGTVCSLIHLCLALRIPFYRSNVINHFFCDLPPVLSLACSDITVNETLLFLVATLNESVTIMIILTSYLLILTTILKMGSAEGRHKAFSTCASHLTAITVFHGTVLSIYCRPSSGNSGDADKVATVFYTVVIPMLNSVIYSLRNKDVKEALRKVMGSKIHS
In short: as §1

OR5L1 = tested on: T19, OR5L1
T19 sequence (whole entry): T18 sequence (whole entry) with T240S
In short: as §1

OR5M11 (Homo sapiens) = biological target: T20, OR5M11 (Homo sapiens) (UniProt Q96RB7)
T20 sequence (whole entry): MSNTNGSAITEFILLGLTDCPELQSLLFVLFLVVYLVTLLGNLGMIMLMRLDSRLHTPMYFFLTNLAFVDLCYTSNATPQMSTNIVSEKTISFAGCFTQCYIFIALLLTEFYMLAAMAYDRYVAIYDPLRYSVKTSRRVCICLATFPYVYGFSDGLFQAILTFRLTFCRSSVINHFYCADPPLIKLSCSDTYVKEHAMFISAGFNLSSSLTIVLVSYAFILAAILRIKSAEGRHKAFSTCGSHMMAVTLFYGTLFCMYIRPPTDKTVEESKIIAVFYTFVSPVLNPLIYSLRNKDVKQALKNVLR
In short: as §1

Measured: odorant receptor agonist call;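 further: active if original authors judged signal statistically different from baseline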

CCC(C)=O
inactive: all assays above

CCCCOC(C)=O
inactive: all assays above

CS
inactive: all assays above

CCOc1cc(C=O)ccc1O
inactive: OR5K1 (Homo sapiens)
